For 37 targets, log2 fold change results are on record in the supplement of paper PMC10849652.

Protein sequences, listed by entry. Tags and fused reporters are not part of them. Lines headed by an entry give the natural chain unless they say otherwise; changes in a name come on top.
UniProt Q07973: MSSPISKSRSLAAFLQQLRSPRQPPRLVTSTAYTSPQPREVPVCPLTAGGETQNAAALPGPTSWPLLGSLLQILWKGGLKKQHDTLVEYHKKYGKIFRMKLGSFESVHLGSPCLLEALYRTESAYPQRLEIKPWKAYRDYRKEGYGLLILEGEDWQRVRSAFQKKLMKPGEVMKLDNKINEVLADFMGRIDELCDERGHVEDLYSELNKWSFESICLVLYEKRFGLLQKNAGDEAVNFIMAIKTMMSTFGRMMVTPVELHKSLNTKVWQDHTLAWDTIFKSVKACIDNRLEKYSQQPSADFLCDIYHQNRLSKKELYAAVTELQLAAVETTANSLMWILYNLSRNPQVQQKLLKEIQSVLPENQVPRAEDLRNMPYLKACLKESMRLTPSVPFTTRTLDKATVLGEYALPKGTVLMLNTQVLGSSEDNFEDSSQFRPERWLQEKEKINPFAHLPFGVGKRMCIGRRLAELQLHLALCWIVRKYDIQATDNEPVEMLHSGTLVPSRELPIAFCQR
UniProt Q9BTE7: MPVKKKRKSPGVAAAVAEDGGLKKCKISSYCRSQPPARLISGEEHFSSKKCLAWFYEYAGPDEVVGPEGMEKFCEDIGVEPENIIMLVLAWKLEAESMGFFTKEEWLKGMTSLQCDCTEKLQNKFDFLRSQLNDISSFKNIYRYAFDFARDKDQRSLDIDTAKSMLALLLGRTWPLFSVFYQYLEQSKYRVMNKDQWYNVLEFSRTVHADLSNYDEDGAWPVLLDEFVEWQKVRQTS
UniProt P49447: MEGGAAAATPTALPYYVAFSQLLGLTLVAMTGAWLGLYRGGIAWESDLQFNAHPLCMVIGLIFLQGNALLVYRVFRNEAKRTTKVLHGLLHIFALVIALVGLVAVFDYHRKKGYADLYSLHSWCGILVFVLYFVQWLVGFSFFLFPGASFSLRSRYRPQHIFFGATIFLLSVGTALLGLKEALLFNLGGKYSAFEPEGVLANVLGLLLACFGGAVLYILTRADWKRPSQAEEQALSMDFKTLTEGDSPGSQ
UniProt Q9NSA3: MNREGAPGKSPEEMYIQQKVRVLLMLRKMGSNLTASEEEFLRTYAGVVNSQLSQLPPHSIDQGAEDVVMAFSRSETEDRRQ
UniProt Q9BWK5: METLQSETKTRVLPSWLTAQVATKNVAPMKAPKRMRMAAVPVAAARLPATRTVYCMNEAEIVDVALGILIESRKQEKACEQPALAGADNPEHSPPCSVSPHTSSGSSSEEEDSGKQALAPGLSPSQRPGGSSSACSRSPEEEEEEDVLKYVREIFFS
UniProt Q96DE9: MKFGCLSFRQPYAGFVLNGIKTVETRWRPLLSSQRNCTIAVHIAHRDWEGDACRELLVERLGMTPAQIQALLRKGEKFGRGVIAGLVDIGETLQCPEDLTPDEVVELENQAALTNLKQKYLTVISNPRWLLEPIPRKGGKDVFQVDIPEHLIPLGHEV
UniProt Q6ZWL3: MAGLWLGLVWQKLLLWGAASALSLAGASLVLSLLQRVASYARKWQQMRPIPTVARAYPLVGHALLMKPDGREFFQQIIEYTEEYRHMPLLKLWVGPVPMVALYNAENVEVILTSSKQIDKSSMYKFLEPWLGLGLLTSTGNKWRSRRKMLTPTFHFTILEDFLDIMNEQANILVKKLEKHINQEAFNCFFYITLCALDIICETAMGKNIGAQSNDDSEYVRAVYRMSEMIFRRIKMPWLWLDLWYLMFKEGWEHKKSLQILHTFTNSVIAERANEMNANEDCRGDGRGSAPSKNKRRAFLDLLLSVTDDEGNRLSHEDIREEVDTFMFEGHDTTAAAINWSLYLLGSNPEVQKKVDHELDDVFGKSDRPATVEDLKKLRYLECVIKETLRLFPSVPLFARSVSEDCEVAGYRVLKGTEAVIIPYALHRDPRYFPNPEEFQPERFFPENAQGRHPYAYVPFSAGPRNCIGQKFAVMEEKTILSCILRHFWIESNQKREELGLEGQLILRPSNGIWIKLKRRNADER
UniProt Q53TN4: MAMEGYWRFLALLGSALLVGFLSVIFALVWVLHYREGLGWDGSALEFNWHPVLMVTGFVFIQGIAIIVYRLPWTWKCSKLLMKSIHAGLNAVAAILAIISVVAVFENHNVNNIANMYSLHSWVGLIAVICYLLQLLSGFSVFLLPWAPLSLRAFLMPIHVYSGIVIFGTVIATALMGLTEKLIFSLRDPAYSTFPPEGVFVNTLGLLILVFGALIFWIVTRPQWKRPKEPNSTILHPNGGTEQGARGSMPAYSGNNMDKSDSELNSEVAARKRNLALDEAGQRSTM
UniProt Q8WV16: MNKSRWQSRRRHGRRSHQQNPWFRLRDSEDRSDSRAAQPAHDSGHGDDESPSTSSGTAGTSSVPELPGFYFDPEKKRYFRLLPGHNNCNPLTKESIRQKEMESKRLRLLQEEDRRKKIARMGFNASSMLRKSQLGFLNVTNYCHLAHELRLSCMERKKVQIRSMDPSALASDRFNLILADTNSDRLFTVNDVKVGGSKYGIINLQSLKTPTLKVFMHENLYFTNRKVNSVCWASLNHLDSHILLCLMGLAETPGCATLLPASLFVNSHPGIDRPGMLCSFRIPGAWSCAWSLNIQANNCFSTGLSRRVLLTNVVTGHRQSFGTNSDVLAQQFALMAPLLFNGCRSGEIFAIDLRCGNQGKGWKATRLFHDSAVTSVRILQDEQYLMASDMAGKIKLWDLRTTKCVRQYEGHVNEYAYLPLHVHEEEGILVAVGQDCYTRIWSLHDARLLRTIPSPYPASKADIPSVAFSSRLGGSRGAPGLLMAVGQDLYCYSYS
UniProt Q15828: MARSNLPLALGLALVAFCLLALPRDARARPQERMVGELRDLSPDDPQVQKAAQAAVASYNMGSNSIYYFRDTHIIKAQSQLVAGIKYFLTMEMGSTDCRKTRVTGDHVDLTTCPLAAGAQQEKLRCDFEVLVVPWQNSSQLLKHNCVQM
UniProt Q15438: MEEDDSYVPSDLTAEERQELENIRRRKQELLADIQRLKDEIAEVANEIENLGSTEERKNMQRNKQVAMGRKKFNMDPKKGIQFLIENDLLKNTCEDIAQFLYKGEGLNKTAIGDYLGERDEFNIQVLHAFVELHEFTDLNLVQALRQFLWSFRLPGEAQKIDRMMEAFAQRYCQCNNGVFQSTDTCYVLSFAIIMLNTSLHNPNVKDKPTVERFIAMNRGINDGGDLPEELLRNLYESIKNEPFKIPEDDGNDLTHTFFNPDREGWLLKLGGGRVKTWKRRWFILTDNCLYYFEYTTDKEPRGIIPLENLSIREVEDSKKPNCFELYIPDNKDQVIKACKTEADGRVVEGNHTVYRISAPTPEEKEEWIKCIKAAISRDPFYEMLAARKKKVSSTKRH
UniProt P01036: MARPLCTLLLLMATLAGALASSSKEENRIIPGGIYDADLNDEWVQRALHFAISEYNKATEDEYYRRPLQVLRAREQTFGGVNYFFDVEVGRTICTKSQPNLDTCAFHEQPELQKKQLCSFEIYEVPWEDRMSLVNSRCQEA
UniProt P53355: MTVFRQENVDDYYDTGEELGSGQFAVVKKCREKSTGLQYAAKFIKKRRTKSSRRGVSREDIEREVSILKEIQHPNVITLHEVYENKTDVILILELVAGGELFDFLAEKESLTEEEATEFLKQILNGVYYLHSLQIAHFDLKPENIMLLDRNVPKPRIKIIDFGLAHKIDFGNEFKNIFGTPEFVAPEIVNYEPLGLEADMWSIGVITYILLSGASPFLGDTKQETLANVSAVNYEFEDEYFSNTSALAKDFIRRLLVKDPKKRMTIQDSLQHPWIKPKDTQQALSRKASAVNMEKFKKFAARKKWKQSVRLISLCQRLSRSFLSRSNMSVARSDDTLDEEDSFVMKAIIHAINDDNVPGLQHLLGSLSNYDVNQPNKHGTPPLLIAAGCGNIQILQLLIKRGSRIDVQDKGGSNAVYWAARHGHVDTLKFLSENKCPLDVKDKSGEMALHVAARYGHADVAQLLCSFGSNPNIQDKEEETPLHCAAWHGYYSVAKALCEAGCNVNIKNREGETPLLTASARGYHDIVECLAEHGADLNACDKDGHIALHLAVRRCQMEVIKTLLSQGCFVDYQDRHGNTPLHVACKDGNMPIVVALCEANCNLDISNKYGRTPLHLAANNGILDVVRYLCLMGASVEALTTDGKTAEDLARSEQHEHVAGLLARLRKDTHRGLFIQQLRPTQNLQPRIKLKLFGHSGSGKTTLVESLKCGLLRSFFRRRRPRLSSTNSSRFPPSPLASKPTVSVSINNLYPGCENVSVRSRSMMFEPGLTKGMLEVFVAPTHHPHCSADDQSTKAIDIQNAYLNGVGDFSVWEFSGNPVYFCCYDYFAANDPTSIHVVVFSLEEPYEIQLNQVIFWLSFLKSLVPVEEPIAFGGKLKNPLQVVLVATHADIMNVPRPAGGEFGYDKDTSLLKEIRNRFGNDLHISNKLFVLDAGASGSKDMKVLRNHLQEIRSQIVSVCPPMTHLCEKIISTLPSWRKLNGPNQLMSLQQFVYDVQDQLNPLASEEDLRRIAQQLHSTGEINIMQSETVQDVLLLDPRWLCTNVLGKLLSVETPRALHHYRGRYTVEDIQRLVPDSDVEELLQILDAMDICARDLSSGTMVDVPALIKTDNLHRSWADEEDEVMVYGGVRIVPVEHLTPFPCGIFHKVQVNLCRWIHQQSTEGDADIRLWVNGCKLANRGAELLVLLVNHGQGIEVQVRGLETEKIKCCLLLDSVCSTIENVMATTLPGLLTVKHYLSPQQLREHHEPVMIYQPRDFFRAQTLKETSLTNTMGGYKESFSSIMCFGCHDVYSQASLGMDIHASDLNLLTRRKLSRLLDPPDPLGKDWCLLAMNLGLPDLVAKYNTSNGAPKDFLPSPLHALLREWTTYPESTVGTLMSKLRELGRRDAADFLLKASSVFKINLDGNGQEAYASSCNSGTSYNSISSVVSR
UniProt O95715: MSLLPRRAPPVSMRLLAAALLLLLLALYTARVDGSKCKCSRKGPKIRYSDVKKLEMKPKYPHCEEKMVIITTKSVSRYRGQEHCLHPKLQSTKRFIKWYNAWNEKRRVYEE
UniProt P01037: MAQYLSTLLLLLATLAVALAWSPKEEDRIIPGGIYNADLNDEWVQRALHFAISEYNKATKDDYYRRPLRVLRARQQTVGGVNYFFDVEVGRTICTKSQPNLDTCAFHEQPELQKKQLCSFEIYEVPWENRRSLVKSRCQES
UniProt Q86T65: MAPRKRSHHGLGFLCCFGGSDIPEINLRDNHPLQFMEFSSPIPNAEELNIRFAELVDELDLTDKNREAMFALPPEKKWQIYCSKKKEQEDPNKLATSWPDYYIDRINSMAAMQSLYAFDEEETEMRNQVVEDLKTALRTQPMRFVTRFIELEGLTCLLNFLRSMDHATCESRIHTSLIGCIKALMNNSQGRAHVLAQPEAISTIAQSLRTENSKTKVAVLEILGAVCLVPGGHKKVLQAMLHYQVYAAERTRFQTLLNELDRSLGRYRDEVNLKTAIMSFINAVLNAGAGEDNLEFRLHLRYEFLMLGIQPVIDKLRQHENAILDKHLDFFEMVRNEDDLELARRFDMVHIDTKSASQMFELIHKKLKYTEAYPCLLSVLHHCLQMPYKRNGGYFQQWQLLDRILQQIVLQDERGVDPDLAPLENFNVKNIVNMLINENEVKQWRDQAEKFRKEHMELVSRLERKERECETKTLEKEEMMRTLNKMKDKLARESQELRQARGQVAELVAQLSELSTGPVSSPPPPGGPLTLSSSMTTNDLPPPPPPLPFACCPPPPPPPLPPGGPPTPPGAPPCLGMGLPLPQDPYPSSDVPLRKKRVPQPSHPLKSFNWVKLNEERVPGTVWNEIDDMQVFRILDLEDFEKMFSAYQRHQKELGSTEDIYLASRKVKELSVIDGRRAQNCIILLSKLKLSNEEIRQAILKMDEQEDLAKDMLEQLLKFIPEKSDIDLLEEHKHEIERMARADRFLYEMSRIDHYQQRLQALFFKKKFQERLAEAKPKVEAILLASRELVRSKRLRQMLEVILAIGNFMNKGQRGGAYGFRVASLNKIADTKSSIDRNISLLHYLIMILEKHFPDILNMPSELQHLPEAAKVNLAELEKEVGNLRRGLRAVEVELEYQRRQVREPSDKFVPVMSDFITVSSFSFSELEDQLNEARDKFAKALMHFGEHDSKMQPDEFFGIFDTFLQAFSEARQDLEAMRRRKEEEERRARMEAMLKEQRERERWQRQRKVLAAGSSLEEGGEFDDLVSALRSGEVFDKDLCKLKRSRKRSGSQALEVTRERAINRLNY

This is one part of the list.

Compound in one experiment: O=C(CCCCCCC(=O)Nc1ccccc1)NO [vorinostat]
As to the kind of experiment: log2 fold change, soluble protein after heating vs DMSO (PISA); higher = thermal stabilisation; K562 cells, 10 uM, 30 min; active = over 0.2 and 3.5 SD of the protein, either way, in both replicates (recomputed). In short, it runs like this:
(§1)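 Thermal stability values are relative to control samples and come from duplicates. They are expressed as log2 fold changes. For measurement, K562 cells (2×10^6 cells/mL) received 10 μM compound for 30 min, and aliquots were heated for 3 min over 48°C-58°C, pooled, and extracted at 4°C in PBS with 0.5% NP-40. Soluble protein, the supernatant after 21,000xg for 90 min, was quantified by TMTpro 16plex LC-MS/MS with equalised channel sums.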
For the target CWF19L2 (UniProt Q2TBE0), the log2 fold change was inactive: -0.184.

In the case of CYP24A1 (UniProt Q07973), the log2 fold change was inactive: 0.067.

DCAF12 (UniProt Q5T6F0): the log2 fold change is inactive: -0.021.

Take CTSF (UniProt Q9UBX1): the log2 fold change was inactive: 0.053.

For the target DCUN1D5 (UniProt Q9BTE7), the log2 fold change is inactive: -0.061.

For CYB561 (UniProt P49447), the log2 fold change was inactive: -0.166.

For the target CTSS (UniProt P25774), the log2 fold change was inactive: 0.15.

In the case of CTNNBIP1 (UniProt Q9NSA3), the log2 fold change was inactive: -0.187.

CYREN (UniProt Q9BWK5): the log2 fold change was inactive: -0.018.

As to CYREN isoform 4 (UniProt Q9BWK5), the log2 fold change was inactive: -0.116.

Consider CTR9 (UniProt Q6PD62), for which the log2 fold change was inactive: 0.053.

As to CXorf40B (UniProt Q96DE9), the log2 fold change is inactive: 0.13.

With CTDSPL2 (UniProt Q05D32), the log2 fold change is inactive: 0.039.

For the target CYP4V2 (UniProt Q6ZWL3), the log2 fold change was inactive: 0.048.

CUL7 isoform 2 (UniProt Q14999): the log2 fold change is inactive: 0.181.

As for CYBRD1 (UniProt Q53TN4), the log2 fold change is inactive: -0.099.

Take CTDSP1 (UniProt Q9GZU7): the log2 fold change was inactive: -0.098.

Turning to DCAF4 (UniProt Q8WV16), the log2 fold change was inactive: 0.238.

Compound in another experiment: O=C(CCCCCCNC(=O)c1cnc(N(c2ccccc2)c2ccccc2Cl)nc1)NO [citarinostat]
Described as above. In short, it runs like this: as §1
In the case of CWF19L2 (UniProt Q2TBE0), the log2 fold change was inactive: 0.13.

Turning to CYP24A1 (UniProt Q07973), the log2 fold change is inactive: -0.002.

In the case of CST6 (UniProt Q15828), the log2 fold change was inactive: -0.272.

With DCAF12 (UniProt Q5T6F0), the log2 fold change was inactive: -0.033.

Turning to CYB561 (UniProt P49447), the log2 fold change is inactive: 0.008.

As for CTSS (UniProt P25774), the log2 fold change is inactive: 0.19.

Turning to CYREN (UniProt Q9BWK5), the log2 fold change was inactive: 0.009.

As for CTNNBL1 (UniProt Q8WYA6), the log2 fold change was inactive: 0.057.

Take CYTH1 (UniProt Q15438): the log2 fold change is inactive: 0.083.

For CTR9 (UniProt Q6PD62), the log2 fold change is inactive: -0.061.

CTNS isoform 2 (UniProt O60931): the log2 fold change was inactive: 0.077.

As to CYP4V2 (UniProt Q6ZWL3), the log2 fold change was inactive: 0.024.

For DCAF17 (UniProt Q5H9S7), the log2 fold change was inactive: -0.037.

Take CYBRD1 (UniProt Q53TN4): the log2 fold change is inactive: -0.034.

For CYP2R1 (UniProt Q6VVX0), the log2 fold change is inactive: -0.162.

Regarding CSPG5 (UniProt O95196), the log2 fold change was inactive: -0.081.

DCAF4 (UniProt Q8WV16): the log2 fold change is inactive: -0.1.

Compound in another experiment: O=C(O)c1ccc2c(c1)nc(Nc1cccc(Cl)c1)c1ccncc12 [silmitasertib]
Described as above. In short, it runs like this: as §1
Consider CST4 (UniProt P01036), for which the log2 fold change was inactive: -0.058.

Consider CYP24A1 (UniProt Q07973), for which the log2 fold change was inactive: 0.099.

Consider CST6 (UniProt Q15828), for which the log2 fold change is inactive: 0.256.

As to DAPK1 isoform 3 (UniProt P53355), the log2 fold change is inactive: 0.064.

For DCAF12 (UniProt Q5T6F0), the log2 fold change is inactive: 0.051.

On to CTDP1 (UniProt Q9Y5B0), for which the log2 fold change was inactive: 0.014.

Regarding DCUN1D5 (UniProt Q9BTE7), the log2 fold change is inactive: 0.06.

Regarding CYB561 (UniProt P49447), the log2 fold change is inactive: 0.127.

Regarding CTNNBIP1 (UniProt Q9NSA3), the log2 fold change was inactive: -0.069.

On to CYREN (UniProt Q9BWK5), for which the log2 fold change is inactive: -0.063.

As for CYTH1 (UniProt Q15438), the log2 fold change was inactive: -0.037.

As for DAPK2 isoform 2 (UniProt Q9UIK4), the log2 fold change was inactive: -0.054.

Take CYREN isoform 4 (UniProt Q9BWK5): the log2 fold change is inactive: 0.001.

For CXCL14 (UniProt O95715), the log2 fold change was inactive: -0.036.

With CTNS isoform 2 (UniProt O60931), the log2 fold change was inactive: 0.202.

CYBRD1 (UniProt Q53TN4): the log2 fold change was inactive: 0.086.

CST1 (UniProt P01037): the log2 fold change is inactive: -0.029.

As to CYTH2 (UniProt Q99418), the log2 fold change is inactive: -0.038.

For DCAF4 (UniProt Q8WV16), the log2 fold change was inactive: 0.066.

Compound in a further experiment: O=C1NC(=O)C(c2cnc3ccccn23)=C1c1cn2c3c(cc(F)cc13)CN(C(=O)N1CCCCC1)CC2
Described as above. In short, it runs like this:
as §1
For CST6 (UniProt Q15828), the log2 fold change is inactive: -0.16.

As to DAPK1 isoform 3 (UniProt P53355), the log2 fold change was inactive: 0.259.

For DCBLD1 (UniProt Q8N8Z6), the log2 fold change was inactive: -0.015.

Regarding CTSF (UniProt Q9UBX1), the log2 fold change is inactive: 0.1.

Take CTDP1 (UniProt Q9Y5B0): the log2 fold change is inactive: 0.088.

As for CTIF (UniProt O43310), the log2 fold change was inactive: -0.227.

In the case of CYTH1 (UniProt Q15438), the log2 fold change was inactive: -0.076.

Consider DAAM2 (UniProt Q86T65), for which the log2 fold change was inactive: 0.149.

Turning to CTR9 (UniProt Q6PD62), the log2 fold change was inactive: 0.037.

Regarding CXorf40B (UniProt Q96DE9), the log2 fold change is inactive: -0.061.

For CTDSPL2 (UniProt Q05D32), the log2 fold change is inactive: 0.201.

Turning to DBNDD1 isoform 3 (UniProt Q9H9R9), the log2 fold change was inactive: -0.024.

With CYP4V2 (UniProt Q6ZWL3), the log2 fold change is inactive: 0.009.

Take DCAF17 (UniProt Q5H9S7): the log2 fold change is inactive: -0.153.

Regarding CUL7 isoform 2 (UniProt Q14999), the log2 fold change was inactive: 0.15.

Consider CXXC5 (UniProt Q7LFL8), for which the log2 fold change is inactive: 0.022.

For the target CST1 (UniProt P01037), the log2 fold change was inactive: -0.072.

As for CSPG5 (UniProt O95196), the log2 fold change was inactive: -0.16.

As for DCAF4 (UniProt Q8WV16), the log2 fold change was inactive: -0.096.
